Among all 31,000 sequences or so, about 1,400 (4.5%) were called active.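 The calls were made as follows: active = median seed-adjusted z-score above 1 or below -1; inactive = the rest.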 The list shows a part of the results.

Consider 108 sequences from PubChem BioAssay AID1347426 (Functional Genomics Laboratory (NCATS/FGL), 2020).

This test can be described thus: Novel Modifiers of Survival Motor Neuron (SMN) Protein: Gene Identification via Genome-wide siRNA Screen.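 Also: luminescence tracks full-length SMN protein made from the SMN2 reporter.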 Conditions: HEK293T SMN2-luciferase reporter, siRNA knockdown, 72 h; actives lie on both sides. The procedure, abridged:
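HEK293T cells stably carrying an SMN2 promoter/splicing cassette–luciferase reporter were reverse-transfected with 1 pmol siRNA per well (druggable-genome library, 3 siRNAs per gene) and grown 72 h at 37 °C. Luminescence, normalized to negative-control siRNA and log10-transformed, was scored as MAD.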
For orientation: A reporter such as luciferase makes a cellular process visible.
In the case of GACUAUUUAAACAACCUUUTT against FGD5, the median seed-adjusted z-score was inactive: -0.0561. GAAGUAGACUUGAUACGAATT against AQR: the median seed-adjusted z-score was active: -1.56. For GCGGCAGUGUUAGCAGCUATT against PACSIN1, the median seed-adjusted z-score was inactive: -0.681. For CCCUUUCCGAGAUAACGUATT against ATIC, the median seed-adjusted z-score was inactive: -0.0267. Regarding GGAAGGACAUGUAUGAGAATT against ITPKC, the median seed-adjusted z-score was inactive: 0.218. For GGCUUAAACUUAGAGUCAATT against MYLIP, the median seed-adjusted z-score is inactive: 0.652.

For CAAGCAAGCCGAGAACUUUTT against SIAH2, the median seed-adjusted z-score was inactive: 0.156. For the sequence CCUACAUCGUGAACAAGAATT against EMILIN2, the median seed-adjusted z-score is inactive: 0.726. The figure for GGACGACUUCUUUAAGUCATT against PGD is active: -1.55; for GACUGUAACAUCAUACUGATT against ZNF544 it is inactive: -0.00739; for GGAGAUGCAUAAAAGGAAATT against BTN2A3 it is inactive: -0.483. The result for CGCAAUGACCUGUACCUAATT against DOCK3 reads inactive: 0.51. Turning to CCACCGCCUACUUCCUGUATT against CD74, the median seed-adjusted z-score was inactive: 0.0748. The figure for GCCUGAUUCUAUUGCAUCATT against PKNOX1 is inactive: 0.68; for CCAUUGGGCUAUGACCUGATT against ACOT4 it is inactive: -0.158. Turning to GCCUUGGAUCGAAAAAGUATT against ODF1, the median seed-adjusted z-score is inactive: 0.912.

In the case of GGCGACGAUUCUUCCUUCATT against PTHLH, the median seed-adjusted z-score was inactive: 0.00556.

Take GGAUCUACUGGAAGAAGUATT against MTA2: the median seed-adjusted z-score is inactive: 0.947. In the case of CUACCGGAUUGAGAUGGAATT against MEGF6, the median seed-adjusted z-score was inactive: 0. The result for GACAAAUCACCAUUCGUUATT against PPARG reads inactive: -0.0309. Turning to CCAUCUCCAGUUGUAUUUUTT against CHKA, the median seed-adjusted z-score is inactive: -0.558.

For GAAUUGACCUUCUUAGGAATT against TDRD9, the median seed-adjusted z-score was inactive: 0.0754. The figure for GAUGCCCAGUGUCCUGUUATT against PIF1 is inactive: -0.0455; for CCAUCGAUGAUGACUGUAATT against ETFB it is inactive: 0.0669; for CCUACUCCAUGGUGGGAUATT against SP7 it is inactive: -0.0435. As to CCCACACUCUAGACUGAAATT against MEF2D, the median seed-adjusted z-score was inactive: 0.0021.

As for GGGACUCAGUACUUCCAUATT against SLC39A8, the median seed-adjusted z-score was inactive: 0.265.

With GAACCUUCAUUUCGAGGAATT against ZNF397, the median seed-adjusted z-score was inactive: -0.107.

In the case of GCAUGAGUAUCUAUGACGATT against ATP5C1, the median seed-adjusted z-score was inactive: -0.0179. The figure for CCAUGGACCUUACUGGAGATT against ARHGDIB is inactive: -0.549. On to GGAUGCUCAGACAAGAAUATT against LPAL2, for which the median seed-adjusted z-score is inactive: 0.7. The result for GCAGUUAGAUGUCAGGACATT against PPIA reads inactive: 0.0169; that for CAGUAUACGUGGUGCACGATT against PFKL, inactive: 0; that for GAACUUGUCUUGACCACCATT against DHX16, inactive: 0.102.

For the sequence CAGCUAACCUGAAGAUGCUTT against E2F7, the median seed-adjusted z-score was inactive: -0.0972. For the sequence GUAUUUCGGGCACAACAAATT against MGST2, the median seed-adjusted z-score was inactive: 0.387. Regarding GAACCUACAUCAUCAGUAUTT against GJA1, the median seed-adjusted z-score is inactive: 0.348. Consider CUACUCAACAGACAUAAUATT against TRIP13, for which the median seed-adjusted z-score was active: 1. Take GCUCAGUUAGAUUCCAUCATT against CRYL1: the median seed-adjusted z-score is inactive: 0.0852. CUGGGAGUCUUGAGCCUAATT against BRD2: the median seed-adjusted z-score is inactive: -0.242.

Regarding GAAUGUUCUGGACAGUGAATT against PDIA6, the median seed-adjusted z-score is inactive: -0.269. GCACAGACUCCAGACCCUATT against SHPK: the median seed-adjusted z-score is inactive: 0.

Turning to AGGUGAUCGCGGACUAUGATT against EDF1, the median seed-adjusted z-score was inactive: 0.0783.

Consider AGUCCUUGAACCUACCAAATT against ZNF410, for which the median seed-adjusted z-score is inactive: -0.135. In the case of GCAUCAUCCGAUGGAAAUATT against GJD3, the median seed-adjusted z-score was inactive: -0.251. As to CGGCCCUGUUUUUAUGAUATT against MTHFD1, the median seed-adjusted z-score is inactive: 0.554. For the sequence AGUCCAACUUAGGUCUAGATT against TGFB3, the median seed-adjusted z-score is inactive: -0.354. Turning to GGUAUAGGCACAGAACUCATT against SLC30A9, the median seed-adjusted z-score is inactive: -0.0779. As for GAACUGUACGCACUCAUGATT against ZAP70, the median seed-adjusted z-score is inactive: -0.674. With GGCAUACAACUGUAUGGUATT against TLR1, the median seed-adjusted z-score is inactive: 0. With CCCUUACAAUGCAAUUGAATT against ERBB4, the median seed-adjusted z-score was inactive: 0.166. Regarding GGAAAAUCGUGAAGUCGAUTT against RAB18, the median seed-adjusted z-score was inactive: 0. Turning to GGAUUUGAUGCACCAUGAATT against LAIR2, the median seed-adjusted z-score was inactive: -0.481. On to CAUGGAGUGUAUUACUGCATT against ILDR1, for which the median seed-adjusted z-score was inactive: -0.318. Turning to GGAAGAUUGUCGCUCCUCATT against TFAP2C, the median seed-adjusted z-score was active: 1.28. Take GGACAGGAAGUUUACCUCUTT against TBC1D25: the median seed-adjusted z-score is inactive: 0.0296. With AUCUUGAGCUCUUCAUUUATT against TPT1, the median seed-adjusted z-score was inactive: 0.236. The figure for GAAGGAGAACAGUCGUGAATT against SLC9A3R1 is inactive: -0.418. As to GCGGAGACCUAGGAACUUUTT against NKX2-5, the median seed-adjusted z-score was inactive: 0.719.

For the sequence GACUGGAAAGUACAAGGCUTT against ARSA, the median seed-adjusted z-score is inactive: 0.0938. Take GCCUUUGACUUGGUGAAUATT against INPP5A: the median seed-adjusted z-score is inactive: -0.00941. For CGCUGUCUCGGGAGAGAAATT against SFRS3, the median seed-adjusted z-score is active: 2.74. In the case of CAAUAGAAUCGUUCAAGAATT against CLDN1, the median seed-adjusted z-score is inactive: 0.307. Take AGGUGCUAGUAGGAAGCUATT against EIF6: the median seed-adjusted z-score is inactive: 0. For CAAGAAUUCCGAUUUCCAATT against GNGT2, the median seed-adjusted z-score was inactive: -0.289.

In the case of GAGCCUUAUGUGGAACAUATT against USP48, the median seed-adjusted z-score is inactive: 0.397. Turning to GGGAGAAUGCUAUUAAUCATT against ZNF425, the median seed-adjusted z-score was inactive: 0.0841.

On to CGCUGCGGCUGAUCCAUAUTT against TRPM5, for which the median seed-adjusted z-score was inactive: -0.0565. On to GAGCGAAGAUGUCCGAAAATT against MIPEP, for which the median seed-adjusted z-score is inactive: -0.169. As to AAAGGUCGAUUGUAAUGGATT against PROK2, the median seed-adjusted z-score was inactive: -0.00826. The figure for GGAUCUCAAUGGAGGAUUUTT against PCTK2 is inactive: -0.497; for GACCUUUAGUCGUCGGUAUTT against ZNF546 it is inactive: 0.497; for GCUUGCCCGAGUUUCCUUUTT against KLF15 it is inactive: -0.45. The result for GCCCUCCUGUGCAACCAUATT against SPRR2G reads inactive: 0.358; that for GCAUCCGCGUUGUGGAAAATT against MYBPC2, inactive: 0.18. Consider CCUUUAUCCCGCCUCCCUATT against HLF, for which the median seed-adjusted z-score was inactive: 0.0548. Take GGACACGAACAAAACCUUATT against RASD1: the median seed-adjusted z-score is inactive: 0.674. As for GACUUAUGUGGAAUCUAUATT against ADAL, the median seed-adjusted z-score is inactive: 0.145. Take CUCGUGUCCCAAAACCAUATT against SNTA1: the median seed-adjusted z-score is inactive: 0.212.

Turning to GAAACAUCCGUGAAAGAGATT against RABL4, the median seed-adjusted z-score is inactive: -0.154.

Regarding CCUUAUUCAUCCUCUAGUATT against ATN1, the median seed-adjusted z-score is inactive: -0.357. The figure for GGUAUUGUUUUAGCCCUGATT against TPBG is inactive: -0.128; for GCAAGUUAAAGAAUAUCGATT against KIF20B it is inactive: 0; for GUAAAAUUGUGAUGGAACUTT against OTUD4 it is inactive: 0.167. In the case of GAAUUACGGAGUCAACAAATT against PITRM1, the median seed-adjusted z-score was inactive: -0.0959. Regarding AGACCAUAACUACUCACUATT against KDELR3, the median seed-adjusted z-score was inactive: 0.476.

Consider CCACGUAACUAUCAUAAGATT against TLL1, for which the median seed-adjusted z-score was inactive: 0.396. Regarding CAUUGAAACACCUCACAAATT against CCNE2, the median seed-adjusted z-score was inactive: 0.801.

For GUAUUGGGACAGUUCUAUUTT against NLN, the median seed-adjusted z-score was inactive: 0.248.

For GCUUCAGACAUGCCUGAAATT against HM13, the median seed-adjusted z-score was inactive: 0.134. In the case of CACCAGCUAUGAACGAGAATT against THOC2, the median seed-adjusted z-score was active: -1.22. The figure for CACCGAGAUUUCUACAACATT against AMPD2 is inactive: 0.214; for CACUGAUCUUCUCACUCAATT against PAH it is inactive: 0.487; for CCAAGAUCCCAAUCAGUCUTT against OXSR1 it is inactive: -0.0682. As for CUCUUGCCGGGACAACAAATT against RXRB, the median seed-adjusted z-score is inactive: 0.147. Turning to CCUUAUCGCUAGAUGUCAATT against GRM3, the median seed-adjusted z-score is inactive: -0.401. For GUUUCUGAUUUAAUAGACATT against ZNF781, the median seed-adjusted z-score was inactive: 0.0307. The figure for CGAAUGCUGAGGCUACAAATT against SLC9A5 is inactive: -0.545; for GGACAGUGCUGCCCUUUGATT against CYP11B1 it is inactive: -0.199. The figure for GAGCCGUUGGACUUCCUUUTT against GPR162 is inactive: 0.195; for GGACGGCAAAGUACGUAAATT against MAK10 it is inactive: 0.124; for GCUAAACAGUUCGCAAGGATT against IGF2R it is inactive: 0.274.

Take GCAGGAUAGAAUCACUUGATT against LCMT1: the median seed-adjusted z-score was inactive: 0.821.

Consider GUACCUGCAUUGUAAACGATT against ATP13A3, for which the median seed-adjusted z-score is inactive: -0.619. As to CAGCCCUUGUUCUCAUCAATT against RORC, the median seed-adjusted z-score was inactive: -0.243. Take CGAAGUUUUUAAUUACUCATT against PRKD1: the median seed-adjusted z-score was inactive: -0.323. For GAUGGAUCCUUCAAUCAUATT against TAF2, the median seed-adjusted z-score is inactive: -0.243. With CGCUACAUCUUCGACCUCUTT against BUD31, the median seed-adjusted z-score is inactive: 0.0554.
